These are yes or no findings as the source states them, for the method shown. Binding can be weak; no strength is given.
Molecular target: Major Tail Protein (MTP) of lactococcal phage p2 (Lactococcus phage p2)
Assay: negative-staining EM structure; topological model of the resting baseplate built here by fitting crystal structures and a modelled Dit-2 into the earlier nsEM map of the native p2 virion (EMD-1699)

B1: distal tail protein (Dit, ORF15) of lactococcal phage p2 (protein, UniProt D3WAD3 2-298)
chain: VRQYKIHTNLDGTDDKVWDVTNGKVRFYQPSNLGLQSTNNIWQSNGIGVMGTRSITQPQIEFKLETFGESLEENYQLMKDFVNDILSKKFVTLEYQTEIFQVYADLALADVTKTEGYGKNGTFSEKITFDIITKWYTYENLTFDKIQNGKVIAGMSKIYGGTAPGNYKYIKGTSYTYYGESDIDRLSRWDIKEEIFSFMGILYPKLPKTPAGVRFLDDIGNEYTAIVFKTEQVQDYILINTDVNDETYQGWKGTTALNLFPVMDFERYRTRIIEKGQMELINLSKAEFKIKRKADFV
For B1, the binding was “binds”.

From paper PMC7472080
